PubChem BioAssay AID1159578 | Peter MacCallum Cancer Centre, 2015
In all, the deposit lists about 18,000 reagents; this is an unselected part. About 1,030 of them (5.7%) were called active. 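Inactive calls also include pools with fewer than 3300 nuclei, whose migration was not assessed.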 Raw values are not corrected between plates. Further read-outs or replicates are left out here.

Test: 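siRNA pools altering how lymphatic endothelial cells close a scratch wound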 (primary screen)
Cell system: human lymphatic endothelial cells
Reagent: siRNA pool against human genes, 40 nM
Duration: 48 h after transfection
Measurement: 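High-content imaging of dye-stained cells in a scratch assay measures filled wound area and nuclei per well; duplicate means given as ratio to mock and robust z-score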
Direction: migration robust z-score: higher = faster migration into the scratch; nuclei per well: higher = more cells in the well
Hit rule: 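Pools averaging fewer than 3300 nuclei are never called; remaining pools count as changed when migration robust z lies outside -2 to 2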
Meaning of the calls: active = migration changed; inactive = no migration change, or too few cells

gene symbol,migration robust z-score,"nuclei per well, duplicate mean",outcome
H2AC1,0.62,5878,inactive
GPAA1,-0.62,5050,inactive
EPHB4,-1.79,5736,inactive
ATP6V0E2,-2.04,6696,active
CTR9,-2.36,4842,active
ZC3H15,0.11,6143,inactive
CXorf66,-0.62,6241,inactive
GARIN5A,1.75,8142,inactive
EDRF1,0.7,5125,inactive
KCNA1,0.94,4381,inactive
AMDHD1,-0.68,6612,inactive
PRKAR1A,1.85,4026,inactive
NAA11,0.56,5840,inactive
PRX,-1.33,4388,inactive
PIK3R1,0.78,5730,inactive
POPDC3,0.5,5974,inactive
CFAP251,3.17,5830,active
LEPROT,-3.41,2726,inactive
UNC5C,0.36,5470,inactive
SERHL,0.21,5150,inactive
ATP8A2,0,6242,inactive
CFAP221,2.02,5448,active
PCYT1B,1.29,5474,inactive
TGDS,1.64,6305,inactive
ABCC6,-1.22,4852,inactive
YTHDC2,-1.12,4600,inactive
C2CD5,0.14,6333,inactive
MPO,-0.7,6190,inactive
RNF44,-1.34,6123,inactive
FITM2,1.68,5402,inactive
DPEP2,-0.29,5094,inactive
PRRG2,-0.28,5886,inactive
NR4A3,1.38,5324,inactive
SMU1,0.32,5201,inactive
GPANK1,-1.64,5832,inactive
MCRS1,-1.12,3179,inactive
SAMD8,0.26,5562,inactive
GFAP,0.84,6355,inactive
FGF13,-0.68,5258,inactive
HIP1,-1.31,2910,inactive
PREPL,0.15,5974,inactive
TRPM7,0.13,6360,inactive
RPL7A,-3.64,2170,inactive
LYZL2,1.3,6232,inactive
MACROH2A1,-0.41,6527,inactive
TSGA10IP,-0.75,7210,inactive
PPP1R1B,-0.08,5802,inactive
EXT1,0.96,5916,inactive
CIRSR,-1.52,3732,inactive
XG,-0.42,4916,inactive
ATOH1,-0.37,6118,inactive
HRK,0.17,5800,inactive
RPRM,-0.83,6470,inactive
CAMSAP1,-0.49,5972,inactive
QRICH1,0.88,4715,inactive
TAF11,-0.32,5008,inactive
SATL1,1.25,6234,inactive

In a second layout: entries from further up
LYZL2
- migration robust z-score: 1.3
- nuclei per well, duplicate mean: 6232
- outcome: inactive

MACROH2A1
- migration robust z-score: -0.41
- nuclei per well, duplicate mean: 6527
- outcome: inactive

TSGA10IP
- migration robust z-score: -0.75
- nuclei per well, duplicate mean: 7210
- outcome: inactive

PPP1R1B
- migration robust z-score: -0.08
- nuclei per well, duplicate mean: 5802
- outcome: inactive

EXT1
- migration robust z-score: 0.96
- nuclei per well, duplicate mean: 5916
- outcome: inactive

CIRSR
- migration robust z-score: -1.52
- nuclei per well, duplicate mean: 3732
- outcome: inactive

XG
- migration robust z-score: -0.42
- nuclei per well, duplicate mean: 4916
- outcome: inactive

ATOH1
- migration robust z-score: -0.37
- nuclei per well, duplicate mean: 6118
- outcome: inactive

HRK
- migration robust z-score: 0.17
- nuclei per well, duplicate mean: 5800
- outcome: inactive

RPRM
- migration robust z-score: -0.83
- nuclei per well, duplicate mean: 6470
- outcome: inactive
